The subject of data set [1] is CD-1 mice. To be noted: Kolesnikov et al., 1996; cited from earlier work.
The subject of data set [2] is CD-1 mice. Briefly: Interactions between topical and systemic or spinal morphine (tailflick). It is filed as in vivo.
The subject of data set [3] is CD-1 mice. The experiment in a line: Tailflick assay, topical opioid analgesia (tail immersion in DMSO solution). Format: in vivo.
Data set [4] has as its system CD-1 mice. The experiment in a line: Tolerance to systemic and topical morphine and cross tolerance (tailflick). Format: in vivo. To be noted: tolerant/naive ED50, topical.
For data set [5] the following is noted: mouse, in vivo.

Regarding `CN1CC[C@]23c4c5ccc(O)c4O[C@H]2[C@@H](O)C=C[C@H]3[C@H]1C5` [Morphine], the “shift in local morphine dose-response curves in mice tolerant to systemic morphine” value with CD-1 mice [1] was 19 fold. Moreover, the “Topical Shift, spinal” value in the data set with CD-1 mice [2] (shift of spinal ED50 by topical morphine 15 mM) was 12. Besides, in the data set on CD-1 mice [2] (shift of systemic ED50 by topical morphine 15 mM), the “Topical Shift, systemic” value is given as 6.5. In the data set on CD-1 mice [3] (ratio of topical ED50 against morphine), the Relative potency is on record as 1. For the same compound, the “ED50 (95% CL)” value in the data set with CD-1 mice [3] (topical for 1 min, tailflick assay, CD-1 mice) is recorded as 8.3 mM (4-13). Also, the “Ratio, Topical” value with CD-1 mice [4] is on record as 9.4.
As to [^125I]DAMGO [^125I-DAMGO], in data set [5], the “radioactivity in blood, brain or spinal cord” value is “no detectable levels of radioactivity” and the “radioactivity in proximal unexposed tail relative to immersed distal tail” value was below 1%.
